This is one part of the list. Shown are side measurements of this screen, not its main read-out; they come without a call. Compounds called inactive in the main read-out are mostly missing here. Potencies come from curve fits of mixed quality, noted in brackets.
Assay: qHTS Assay to Find Inhibitors of Chronic Active B-Cell Receptor Signaling
Conditions: ABC-DLBCL IkBa-CBG/CBR reporter, luminescence ratio (green luciferase fused to IkBa over red control in TMD8 lymphoma cells), 4 h
Outline: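 Concentration-response series (up to 46 uM) were applied to TMD8 dual-reporter cells for 4 h at 37C with doxycycline. Green/red ratio, after filter-overlap correction, defined %Activity; red signal alone was normalised to basal cells and zero luminescence.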

[1] = measured here: CBR red luminescence, cell number
[2] = measured here: IkBa-CBG green luminescence

CCC(OC(=O)CCc1nc2ccccc2[nH]c1=O)C(=O)c1ccccc1 (stereo not drawn)
AC50 [1]: 29.1 µM [rising, single point]

Cc1nnc(SCC2=C(C(=O)O)N3C(=O)C(NC(=O)C(C)n4nc(C(F)(F)F)cc4C)C3SC2)s1 (stereo not drawn)
AC50 [1]: 35.5 µM [falling, single point]

CCOc1ccc(NC(=O)CSc2nnc(-c3ccccc3Cl)n2Cc2ccco2)cc1
AC50 [1]: 35.5 µM [falling, single point]

Cc1nc2c(sc3nc4c(cc32)COC(C)(C)C4)c(=O)n1CC(=O)NCc1ccco1
AC50 [1]: 35.5 µM [rising, single point]
AC50 [2]: 15.8 µM [falling, single point]

CC(Sc1nnc2c(n1)[nH]c1ccccc12)C(=O)N(C)C1CCCCC1 (stereo not drawn)
AC50 [1]: 17.8 µM [falling, single point]

O=C(c1cccs1)N1N=C(c2ccccc2)CC1c1ccccc1O (stereo not drawn)
AC50 [1]: 5.62 µM [rising, partial curve, poor fit]

COc1cc(/C=C/C(=O)c2ccc([N+](=O)[O-])o2)ccc1O
AC50 [1]: 7.31 µM [rising, single point]
AC50 [2]: 9.2 µM [falling, single point]

Cc1cc2nc(-c3ccc(SCC(=O)Nc4ccc5c(c4)OCCO5)nc3)[nH]c2cc1C
AC50 [1]: 2.24 µM [falling, partial curve]

COc1ccc(C(=O)CNc2ccc(C)cc2C)cc1
AC50 [1]: 12.6 µM [falling, partial curve]

Cc1nn(C)c(Cl)c1NC(=O)OCc1ccc(F)cc1
AC50 [1]: 14.1 µM [rising, single point]

COc1ccc(-c2nc(CN3CCN(Cc4cccc(Cl)c4)CC3)c(C)o2)cc1
AC50 [1]: 6.31 µM [rising, full curve, poor fit]

O=C(c1ccccc1)c1ccc(OCC(O)CNCc2ccc(F)cc2)cc1 (stereo not drawn)
AC50 [1]: 35.5 µM [falling, single point]

CCC(=O)NCCC(c1ccco1)c1ccccc1OC (stereo not drawn)
AC50 [2]: 18.4 µM [rising, single point]

O=C(O)CCNS(=O)(=O)c1ccc2c(c1)Cc1ccccc1-2
AC50 [1]: 1.78 µM [falling, full curve]

O=C(CCS(=O)(=O)c1cccc2nonc12)NCCc1ccccc1
AC50 [1]: 29.1 µM [rising, single point]

Clc1ccc(-c2cc(-c3ccccc3)on2)cc1
AC50 [1]: 0.13 µM [rising, full curve, poor fit]

COc1ccccc1/C=C/C(=O)NC(=S)Nc1ccc(S(=O)(=O)N(C)c2ccccc2)cc1
AC50 [1]: 3.16 µM [falling, full curve]

O=C(Oc1cccc2cccnc12)c1ccc(N2C(=O)C3C4CCC(C4)C3C2=O)cc1 (stereo not drawn)
AC50 [1]: 3.66 µM [falling, full curve]
AC50 [2]: 8.2 µM [falling, single point]

CNCc1ccccc1Sc1cccc2ccccc12
AC50 [1]: 29.1 µM [falling, single point]

Cc1cc(C)cc(OC(=O)CS(=O)c2ccc(C(F)(F)F)cc2[N+](=O)[O-])c1 (stereo not drawn)
AC50 [1]: 7.31 µM [falling, single point]

CC(NC(=O)c1cc2ccccc2oc1=O)c1ccc(O)cc1 (stereo not drawn)
AC50 [1]: 0.794 µM [rising, partial curve, poor fit]

CCSc1nc2ccccc2n1Cc1cccc([N+](=O)[O-])c1
AC50 [1]: 35.5 µM [rising, partial curve, poor fit]

O=C(Cc1ccc(S(=O)(=O)N2CCOCC2)s1)NNC(=O)c1ccccc1Cl
AC50 [1]: 20.6 µM [falling, single point]

COc1ccccc1N1CCN(CC(=O)Nc2ccc3c(c2)OCCO3)CC1
AC50 [1]: 35.5 µM [falling, single point]

O=C(CCCN1C(=O)/C(=C\c2cccs2)SC1=S)NNC(=O)c1cccnc1
AC50 [1]: 3.16 µM [falling, full curve, poor fit]

COc1ccc(OC)c(S(=O)(=O)NCC(c2ccc3c(c2)OCO3)N2CCOCC2)c1 (stereo not drawn)
AC50 [1]: 32.6 µM [falling, partial curve, poor fit]

O=C(N/N=C/c1ccc(C(F)(F)F)cc1)c1ccc(O)cc1
AC50 [1]: 0.447 µM [falling, full curve, poor fit]

CCOC(=O)c1ccc(NC(=O)CNNC(=O)COc2ccccc2C)cc1
AC50 [1]: 2.59 µM [falling, partial curve]

Cc1cc(C)c2c(CC(=O)Nc3ccc(Cl)cn3)coc2c1
AC50 [1]: 32.6 µM [rising, single point]

O=C(CC(c1ccccc1)c1ccccc1O)NCc1ccccc1Cl (stereo not drawn)
AC50 [1]: 16.4 µM [falling, single point]

COc1ccc(NC(=O)C/C(C)=N/NC(=O)c2cnccn2)c(OC)c1
AC50 [1]: 8.91 µM [falling, partial curve, poor fit]

O=C(O)C1CCCN1c1nc(-c2ccc(Cl)c(Cl)c2)cc(C(F)(F)F)n1 (stereo not drawn)
AC50 [1]: 29.1 µM [falling, single point]

O=C(NCCNc1cc(Cl)ccc1[N+](=O)[O-])c1ccco1
AC50 [1]: 0.58 µM [rising, partial curve, poor fit]

Cc1c(C)n(C)c2ccc(C(=O)Nc3cccc4ccccc34)cc12
AC50 [1]: 1.41 µM [falling, full curve, poor fit]

CCN(c1ccc(NC(=O)CSc2nnc3nc(C)cc(C)n23)cc1)C(C)C
AC50 [1]: 25.9 µM [rising, single point]

COc1cc(C(=O)OCC#N)ccc1OCc1c(C)noc1C
AC50 [1]: 35.5 µM [rising, single point]
AC50 [2]: 35.5 µM [falling, single point]

CC(NC(=O)Cn1ncc(Cl)c(Cl)c1=O)C12CC3CC(CC(C3)C1)C2 (stereo not drawn)
AC50 [1]: 8.2 µM [falling, partial curve]
AC50 [2]: 29.1 µM [rising, partial curve, poor fit]

Cc1csc(NC(=O)CSc2ccccc2F)n1
AC50 [1]: 28.2 µM [falling, single point]

COc1ccccc1NS(=O)(=O)c1cccc2nsnc12
AC50 [1]: 11.2 µM [falling, partial curve, poor fit]

CCOC(=O)c1c(C)[nH]c(C)c1C(=O)COC(=O)c1ccc(S(=O)(=O)C(F)F)cc1
AC50 [1]: 6.51 µM [rising, partial curve, poor fit]

O=C(CN1C2=NCCN2c2ccccc21)C12CC3CC(CC(C3)C1)C2
AC50 [1]: 31.6 µM [falling, single point]

Nc1c(Cl)cc(Cl)cc1C(=O)OCC(=O)N1CCCC1
AC50 [1]: 29.1 µM [falling, single point]

COC(=O)c1cc(S(=O)(=O)N2CCCCC2)c[nH]1
AC50 [1]: 31.6 µM [rising, single point]

O=C1c2ccccc2C(=O)N1CCCCCCc1ccccc1
AC50 [1]: 20.6 µM [rising, single point]

CCc1nc2ccccc2c(C(=O)OCC(=O)Nc2cccc(S(=O)(=O)N3CCOCC3)c2)c1C
AC50 [1]: 11.2 µM [falling, partial curve, poor fit]
AC50 [2]: 15.8 µM [rising, partial curve, poor fit]

COc1ccccc1C(=O)NCCn1cc(SCC(=O)Nc2cc(C)on2)c2ccccc21
AC50 [1]: 29.1 µM [falling, single point]

Nc1cccc2nc3ccccc3cc12
AC50 [1]: 2.31 µM [falling, single point]
AC50 [2]: 8.91 µM [rising, partial curve, poor fit]

CC(C)OC(=O)c1cccnc1SCc1cc(=O)n2ccccc2n1
AC50 [1]: 35.5 µM [falling, single point]

COc1ccc(Cc2nnc(NS(=O)(=O)c3ccc(NC(C)=O)cc3)s2)cc1
AC50 [1]: 35.5 µM [falling, single point]

CC1(C)C=Cc2c(ccc3c2OC[C@H](c2ccc(O)cc2O)C3)O1
AC50 [1]: 20.6 µM [rising, partial curve]

O=C(COC(=O)c1ccc(-c2nnc(-c3ccccc3)o2)cc1)c1ccccc1
AC50 [1]: 1.03 µM [rising, full curve, poor fit]

CCOc1ccc(S(=O)(=O)N2CCC(C(=O)N3CCN(c4ccccc4)CC3)CC2)cc1
AC50 [1]: 35.5 µM [falling, single point]

Cc1ccc(CNC(=O)c2cc3c(C)nc4ccccc4c3o2)cc1
AC50 [1]: 29.1 µM [falling, single point]

CC(C)SCCCCOc1ccc2ccccc2c1
AC50 [1]: 8.91 µM [rising, partial curve]

Cc1cc(C)c(S(=O)(=O)N2CCN=C2c2ccccc2)cc1C
AC50 [1]: 20.6 µM [rising, partial curve, poor fit]

CC(Sc1cccc[n+]1[O-])C(=O)Nc1ccc(Oc2ccccc2)cc1 (stereo not drawn)
AC50 [1]: 1.41 µM [rising, partial curve, poor fit]

CC12c3ccccc3C(c3ccccc31)C1C(=O)N(c3ccncc3)C(=O)C12 (stereo not drawn)
AC50 [2]: 14.1 µM [rising, partial curve, poor fit]

O=C(NC(=S)Nc1cc([N+](=O)[O-])ccc1O)c1cccnc1
AC50 [1]: 8.91 µM [falling, partial curve]

Cc1c(/C=N/NC(=O)C(NC(=O)c2ccc3c(c2)OCO3)C(C)C)c2ccccc2n1C (stereo not drawn)
AC50 [1]: 29.1 µM [falling, single point]

S=C(Nc1ccc2nc(-c3ccccn3)c(-c3ccccn3)nc2c1)N1CCOCC1
AC50 [1]: 35.5 µM [rising, single point]

Cc1noc(C)c1COC(=O)c1cc(S(=O)(=O)N2CCOCC2)ccc1F
AC50 [1]: 23.1 µM [rising, partial curve, poor fit]
